Measured values as given in article PMC5129914.

What was measured:
[1] = target: T1, LKB1 (liver kinase B1; endogenous, porcine aortic endothelial cells) (pig (endogenous in PAEC)) (UniProt F1S6Q9); assay: co-IP; PAEC transfected with control or HERC2 RNAi, or with pcDNA or hSIRT1-3FLAG; antibodies against LKB1; HERC2 and SIRT1 detected by Western blotting
T1 sequence: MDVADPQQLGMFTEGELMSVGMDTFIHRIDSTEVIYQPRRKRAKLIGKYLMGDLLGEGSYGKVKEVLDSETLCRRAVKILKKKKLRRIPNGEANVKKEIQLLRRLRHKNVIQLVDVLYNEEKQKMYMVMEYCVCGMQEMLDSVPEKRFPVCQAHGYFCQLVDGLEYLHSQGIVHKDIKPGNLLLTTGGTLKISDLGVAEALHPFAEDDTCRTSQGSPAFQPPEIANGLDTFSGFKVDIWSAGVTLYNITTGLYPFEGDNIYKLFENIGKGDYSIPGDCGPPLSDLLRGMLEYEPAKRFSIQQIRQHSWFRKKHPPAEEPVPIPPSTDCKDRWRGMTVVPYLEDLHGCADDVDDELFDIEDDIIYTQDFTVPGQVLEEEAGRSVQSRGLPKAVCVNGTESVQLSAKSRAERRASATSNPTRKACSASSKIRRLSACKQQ

[2] = target: T2, K64R (LKB1-K64R-3FLAG; murine LKB1 with lysine 64 replaced by arginine, carboxy-terminal triple-FLAG tag) (mouse) (UniProt Q9WTK7); assay: co-IP; PAEC transiently overexpressing FLAG-tagged WT-LKB1, K64Q or K64R; anti-FLAG or anti-SIRT1; Western blotting
T2 sequence: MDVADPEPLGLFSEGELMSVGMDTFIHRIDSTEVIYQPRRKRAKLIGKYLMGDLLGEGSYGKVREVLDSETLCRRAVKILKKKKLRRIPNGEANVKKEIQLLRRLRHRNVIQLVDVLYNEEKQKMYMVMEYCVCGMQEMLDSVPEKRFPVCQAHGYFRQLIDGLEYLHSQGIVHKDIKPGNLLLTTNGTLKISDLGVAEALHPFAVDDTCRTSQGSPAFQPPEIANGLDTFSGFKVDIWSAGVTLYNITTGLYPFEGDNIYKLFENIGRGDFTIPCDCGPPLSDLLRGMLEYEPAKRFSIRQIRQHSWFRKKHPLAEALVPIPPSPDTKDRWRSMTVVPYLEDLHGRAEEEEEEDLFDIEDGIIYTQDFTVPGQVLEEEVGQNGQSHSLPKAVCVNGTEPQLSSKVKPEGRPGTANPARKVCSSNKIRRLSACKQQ

[3] = target: T3, K64Q (LKB1-K64Q-3FLAG; murine LKB1 with lysine 64 replaced by glutamine, carboxy-terminal triple-FLAG tag) (mouse) (UniProt Q9WTK7); assay: as above
T3 sequence: T2 sequence with R64Q

[4] = target: T4, FLAG-tagged WT-LKB1 (LKB1-WT-3FLAG; full-length murine LKB1 with a carboxy-terminal triple-FLAG tag) (mouse) (UniProt Q9WTK7); assay: as above
T4 sequence: T2 sequence with R64K

[5] = target: T1, LKB1 (liver kinase B1; endogenous, porcine aortic endothelial cells) (pig (endogenous in PAEC)); assay: co-IP; total cell lysates or subcellular (cytosol and nuclear) fractions of PAEC treated with MG132 (10 μM, six hours); antibodies against LKB1 or SIRT1; Western blotting

- binding [1]: binds
- binding [2]: binds
- binding [3]: binds
- binding [4]: binds
- binding [5]: binds
Substance: SIRT1 (endogenous, porcine aortic endothelial cells) (pig (endogenous in PAEC))

Substitutions are numbered along the chain they refer to. These are yes or no findings as the source states them, for the method shown. In cells and extracts the contact can be indirect. Binding can be weak; no strength is given. For some assays here: Tags and fused reporters may be left off the sequences shown.
